Results are given in words; binding and its absence hold for the method and conditions named. In cells and extracts the contact can be indirect. Some entries that bind do so weakly or less than the wild type. Where a sequence is shown, tags or fusion partners need not be part of it.
Target: Flag-STK33 (serine/threonine kinase 33) (UniProt Q9BYT3)
Experiment: co-IP; 293T cells transfected with Flag-STK33 and HA-CCAR1; immunoprecipitation with anti-Flag or anti-HA antibodies, lysates and immunoprecipitates blotted

Protein sequences, listed by entry. Tags and fused reporters are not part of them.
UniProt Q9BYT3: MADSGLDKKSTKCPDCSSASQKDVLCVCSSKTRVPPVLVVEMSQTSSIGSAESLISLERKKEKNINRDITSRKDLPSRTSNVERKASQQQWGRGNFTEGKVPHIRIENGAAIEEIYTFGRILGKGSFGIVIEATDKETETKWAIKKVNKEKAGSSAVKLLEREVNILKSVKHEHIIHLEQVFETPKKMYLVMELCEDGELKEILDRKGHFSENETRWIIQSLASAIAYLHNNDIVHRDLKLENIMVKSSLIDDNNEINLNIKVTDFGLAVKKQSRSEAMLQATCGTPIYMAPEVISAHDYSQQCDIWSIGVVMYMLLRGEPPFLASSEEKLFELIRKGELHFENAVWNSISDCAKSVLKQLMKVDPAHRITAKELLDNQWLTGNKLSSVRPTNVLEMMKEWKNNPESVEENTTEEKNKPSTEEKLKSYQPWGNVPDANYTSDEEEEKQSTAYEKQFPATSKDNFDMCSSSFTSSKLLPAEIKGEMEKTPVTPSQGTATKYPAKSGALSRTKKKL

B1: HA-CCAR1 (protein, UniProt Q8IX12 1-1150)
chain: MAQFGGQKNPPWATQFTATAVSQPAALGVQQPSLLGASPTIYTQQTALAAAGLTTQTPANYQLTQTAALQQQAAAAAAALQQQYSQPQQALYSVQQQLQQPQQTLLTQPAVALPTSLSLSTPQPTAQITVSYPTPRSSQQQTQPQKQRVFTGVVTKLHDTFGFVDEDVFFQLSAVKGKTPQVGDRVLVEATYNPNMPFKWNAQRIQTLPNQNQSQTQPLLKTPPAVLQPIAPQTTFGVQTQPQPQSLLQAQISAASITPLLQTQPQPLLQQPQQKAGLLQPPVRIVSQPQPARRLDPPSRFSGRNDRGDQVPNRKDDRSRERERERRRSRERSPQRKRSRERSPRRERERSPRRVRRVVPRYTVQFSKFSLDCPSCDMMELRRRYQNLYIPSDFFDAQFTWVDAFPLSRPFQLGNYCNFYVMHREVESLEKNMAILDPPDADHLYSAKVMLMASPSMEDLYHKSCALAEDPQELRDGFQHPARLVKFLVGMKGKDEAMAIGGHWSPSLDGPDPEKDPSVLIKTAIRCCKALTGIDLSVCTQWYRFAEIRYHRPEETHKGRTVPAHVETVVLFFPDVWHCLPTRSEWETLSRGYKQQLVEKLQGERKEADGEQDEEEKDDGEAKEISTPTHWSKLDPKTMKVNDLRKELESRALSSKGLKSQLIARLTKQLKVEEQKEEQKELEKSEKEEDEDDDRKSEDDKEEEERKRQEEIERQRRERRYILPDEPAIIVHPNWAAKSGKFDCSIMSLSVLLDYRLEDNKEHSFEVSLFAELFNEMLQRDFGVRIYKSLLSLPEKEDKKEKDKKSKKDERKDKKEERDDETDEPKPKRRKSGDDKDKKEDRDERKKEDKRKDDSKDDDETEEDNNQDEYDPMEAEEAEDEEDDRDEEEMTKRDDKRDINRYCKERPSKDKEKEKTQMITINRDLLMAFVYFDQSHCGYLLEKDLEEILYTLGLHLSRAQVKKLLNKVVLRESCFYRKLTDTSKDEENHEESESLQEDMLGNRLLLPTPTVKQESKDVEENVGLIVYNGAMVDVGSLLQKLEKSEKVRAEVEQKLQLLEEKTDEDEKTILNLENSNKSLSGELREVKKDLSQLQENLKISENMNLQFENQMNKTIRNLSTVMDEIHTVLKKDNVKNEDKDQKSKENGASV
With B1 the binding was “binds”.
